The list shows a part of the results.
How the values were obtained:
Assay in all cases: log2 fold change, soluble protein after heating vs DMSO (PISA); higher = thermal stabilisation; K562 cells, 10 uM, 30 min; active = over 0.2 and 3.5 SD of the protein, either way, in both replicates (recomputed)
[1] = compound: C1=CC=C(C=C1)[C@H](COC2=CC3=C(C=C2)NC(=O)N3)NC(=O)C4=CC=CN(C4=O)CC5=CC(=C(C=C5)F)F
Summary of the method: (§1)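 K562 cells at 2×10^6 cells/mL were exposed to 10 μM compound for 30 min, then aliquots were heated for 3 min across 48°C-58°C, pooled, and extracted in PBS containing 0.5% NP-40 at 4°C. The supernatant after 21,000xg for 90 min was taken as soluble protein and measured by TMTpro 16plex LC-MS/MS with channel sums equalised. Thermal stability is reported relative to control samples, with values from duplicates. Fold changes are given on a log2 scale.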

Chains of the proteins cited; added tags and fusions are not shown. Lines headed by an entry give the natural chain unless they say otherwise; changes in a name come on top.
UniProt Q8WUM4: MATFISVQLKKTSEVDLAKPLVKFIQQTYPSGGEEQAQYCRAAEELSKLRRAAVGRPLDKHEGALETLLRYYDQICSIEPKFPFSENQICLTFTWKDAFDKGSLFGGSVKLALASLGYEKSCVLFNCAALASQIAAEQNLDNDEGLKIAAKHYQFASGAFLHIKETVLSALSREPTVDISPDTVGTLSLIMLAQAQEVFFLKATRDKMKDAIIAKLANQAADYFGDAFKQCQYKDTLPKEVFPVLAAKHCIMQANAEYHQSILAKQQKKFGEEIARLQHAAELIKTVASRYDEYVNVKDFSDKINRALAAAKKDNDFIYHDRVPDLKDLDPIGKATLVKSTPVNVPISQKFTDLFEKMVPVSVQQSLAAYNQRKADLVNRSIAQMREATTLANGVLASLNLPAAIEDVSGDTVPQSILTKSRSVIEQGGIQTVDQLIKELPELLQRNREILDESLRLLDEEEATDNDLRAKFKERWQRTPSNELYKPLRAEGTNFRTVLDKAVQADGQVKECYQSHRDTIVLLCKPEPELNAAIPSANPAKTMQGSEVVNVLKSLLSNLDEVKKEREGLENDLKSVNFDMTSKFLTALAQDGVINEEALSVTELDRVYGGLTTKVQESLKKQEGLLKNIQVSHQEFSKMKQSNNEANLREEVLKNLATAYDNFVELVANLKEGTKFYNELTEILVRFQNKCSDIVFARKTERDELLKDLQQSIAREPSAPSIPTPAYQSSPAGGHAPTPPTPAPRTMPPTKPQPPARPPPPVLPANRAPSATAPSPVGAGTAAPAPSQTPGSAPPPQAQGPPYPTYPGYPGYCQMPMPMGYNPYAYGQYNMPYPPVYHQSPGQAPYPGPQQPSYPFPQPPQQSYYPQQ
UniProt O43933: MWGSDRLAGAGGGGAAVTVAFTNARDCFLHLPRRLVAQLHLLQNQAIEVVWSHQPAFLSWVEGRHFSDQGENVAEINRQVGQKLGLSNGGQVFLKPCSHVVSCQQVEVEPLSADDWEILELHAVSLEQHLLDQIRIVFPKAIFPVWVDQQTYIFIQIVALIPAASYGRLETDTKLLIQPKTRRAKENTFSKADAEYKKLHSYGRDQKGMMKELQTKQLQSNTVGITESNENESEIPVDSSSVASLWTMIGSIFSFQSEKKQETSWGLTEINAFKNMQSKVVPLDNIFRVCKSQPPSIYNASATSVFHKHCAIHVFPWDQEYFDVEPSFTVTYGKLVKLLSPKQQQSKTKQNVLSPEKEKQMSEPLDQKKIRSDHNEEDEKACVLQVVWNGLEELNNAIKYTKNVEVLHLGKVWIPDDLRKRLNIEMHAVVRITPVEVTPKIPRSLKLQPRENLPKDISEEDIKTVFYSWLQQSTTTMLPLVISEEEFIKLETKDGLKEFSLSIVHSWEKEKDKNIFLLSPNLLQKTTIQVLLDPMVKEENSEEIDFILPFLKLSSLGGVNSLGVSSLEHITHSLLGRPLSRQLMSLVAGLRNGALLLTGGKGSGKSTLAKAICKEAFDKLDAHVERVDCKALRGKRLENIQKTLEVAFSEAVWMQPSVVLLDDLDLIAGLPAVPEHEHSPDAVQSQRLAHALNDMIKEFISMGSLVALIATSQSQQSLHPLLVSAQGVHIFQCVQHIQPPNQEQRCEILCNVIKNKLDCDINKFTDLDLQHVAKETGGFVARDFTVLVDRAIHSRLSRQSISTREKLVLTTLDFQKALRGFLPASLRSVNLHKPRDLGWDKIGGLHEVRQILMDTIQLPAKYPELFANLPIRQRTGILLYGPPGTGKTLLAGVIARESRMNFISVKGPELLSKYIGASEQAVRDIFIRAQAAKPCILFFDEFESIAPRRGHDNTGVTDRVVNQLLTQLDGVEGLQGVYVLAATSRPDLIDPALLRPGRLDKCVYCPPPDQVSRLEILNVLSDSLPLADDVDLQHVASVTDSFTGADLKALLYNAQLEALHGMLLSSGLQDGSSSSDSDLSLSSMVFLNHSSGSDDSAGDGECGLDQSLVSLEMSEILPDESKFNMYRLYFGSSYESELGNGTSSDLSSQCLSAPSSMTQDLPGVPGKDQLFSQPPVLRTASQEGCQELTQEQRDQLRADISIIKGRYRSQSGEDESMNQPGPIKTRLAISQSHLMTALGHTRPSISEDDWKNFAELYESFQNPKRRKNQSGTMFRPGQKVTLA
UniProt O00623: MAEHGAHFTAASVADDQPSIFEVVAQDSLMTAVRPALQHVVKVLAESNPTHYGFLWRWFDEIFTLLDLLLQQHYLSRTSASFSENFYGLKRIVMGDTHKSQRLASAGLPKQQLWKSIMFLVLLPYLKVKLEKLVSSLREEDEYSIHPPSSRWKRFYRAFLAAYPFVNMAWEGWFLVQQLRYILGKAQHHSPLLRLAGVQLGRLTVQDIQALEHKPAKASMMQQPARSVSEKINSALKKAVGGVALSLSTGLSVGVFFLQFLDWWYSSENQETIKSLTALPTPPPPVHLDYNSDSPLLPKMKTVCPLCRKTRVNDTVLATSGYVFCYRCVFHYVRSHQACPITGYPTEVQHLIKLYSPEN
UniProt P27815: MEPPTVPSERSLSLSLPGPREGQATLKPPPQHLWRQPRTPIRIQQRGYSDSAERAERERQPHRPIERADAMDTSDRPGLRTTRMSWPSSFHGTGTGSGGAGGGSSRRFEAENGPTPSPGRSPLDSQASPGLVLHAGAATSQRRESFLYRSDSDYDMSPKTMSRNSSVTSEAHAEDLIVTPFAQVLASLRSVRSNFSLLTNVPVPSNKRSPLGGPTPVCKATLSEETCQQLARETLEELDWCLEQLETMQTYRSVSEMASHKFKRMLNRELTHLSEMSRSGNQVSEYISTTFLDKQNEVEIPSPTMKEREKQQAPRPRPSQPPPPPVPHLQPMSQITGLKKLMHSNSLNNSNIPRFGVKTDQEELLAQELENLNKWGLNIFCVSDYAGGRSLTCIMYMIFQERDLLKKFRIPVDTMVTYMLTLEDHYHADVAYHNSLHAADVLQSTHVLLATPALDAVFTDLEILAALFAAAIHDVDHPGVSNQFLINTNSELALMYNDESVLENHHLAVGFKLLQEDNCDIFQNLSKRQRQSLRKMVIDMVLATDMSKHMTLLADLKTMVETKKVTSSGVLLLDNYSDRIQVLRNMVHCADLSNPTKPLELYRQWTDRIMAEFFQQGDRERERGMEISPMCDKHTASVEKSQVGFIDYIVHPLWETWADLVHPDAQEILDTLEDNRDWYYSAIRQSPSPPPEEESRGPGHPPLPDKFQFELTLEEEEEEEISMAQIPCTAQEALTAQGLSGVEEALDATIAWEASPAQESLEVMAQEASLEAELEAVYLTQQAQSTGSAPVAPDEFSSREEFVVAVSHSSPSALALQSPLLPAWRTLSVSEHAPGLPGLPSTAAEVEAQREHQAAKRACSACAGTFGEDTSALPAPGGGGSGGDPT
UniProt Q6VY07, whole entry, looked up: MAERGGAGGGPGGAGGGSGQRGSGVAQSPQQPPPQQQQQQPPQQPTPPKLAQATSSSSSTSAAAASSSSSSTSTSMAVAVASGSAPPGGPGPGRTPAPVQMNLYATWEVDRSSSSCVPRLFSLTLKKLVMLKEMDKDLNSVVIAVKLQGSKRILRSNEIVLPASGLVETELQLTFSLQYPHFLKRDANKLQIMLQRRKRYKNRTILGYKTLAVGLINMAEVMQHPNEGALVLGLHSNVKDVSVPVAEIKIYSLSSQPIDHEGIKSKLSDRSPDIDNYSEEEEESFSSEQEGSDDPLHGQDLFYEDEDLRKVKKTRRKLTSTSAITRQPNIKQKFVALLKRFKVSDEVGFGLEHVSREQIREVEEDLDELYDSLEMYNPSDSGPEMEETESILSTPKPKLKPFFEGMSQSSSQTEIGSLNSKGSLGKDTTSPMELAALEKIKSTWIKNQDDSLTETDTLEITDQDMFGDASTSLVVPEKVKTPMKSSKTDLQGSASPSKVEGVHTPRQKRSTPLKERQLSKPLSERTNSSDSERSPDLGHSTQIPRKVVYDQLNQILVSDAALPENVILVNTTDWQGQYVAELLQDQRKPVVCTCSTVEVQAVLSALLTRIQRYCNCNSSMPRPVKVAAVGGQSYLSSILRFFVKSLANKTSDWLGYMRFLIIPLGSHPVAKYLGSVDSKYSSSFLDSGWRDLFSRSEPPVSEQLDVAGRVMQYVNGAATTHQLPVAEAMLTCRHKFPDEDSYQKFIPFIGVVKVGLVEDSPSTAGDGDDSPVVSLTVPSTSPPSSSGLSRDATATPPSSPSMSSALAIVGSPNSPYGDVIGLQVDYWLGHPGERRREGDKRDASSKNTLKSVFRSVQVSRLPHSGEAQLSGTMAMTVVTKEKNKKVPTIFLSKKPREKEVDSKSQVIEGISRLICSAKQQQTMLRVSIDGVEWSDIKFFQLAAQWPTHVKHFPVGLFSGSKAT
UniProt O14737: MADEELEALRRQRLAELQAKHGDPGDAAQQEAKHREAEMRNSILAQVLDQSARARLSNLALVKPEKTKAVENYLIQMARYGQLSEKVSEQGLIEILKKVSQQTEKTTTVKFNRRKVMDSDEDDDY
UniProt Q13442: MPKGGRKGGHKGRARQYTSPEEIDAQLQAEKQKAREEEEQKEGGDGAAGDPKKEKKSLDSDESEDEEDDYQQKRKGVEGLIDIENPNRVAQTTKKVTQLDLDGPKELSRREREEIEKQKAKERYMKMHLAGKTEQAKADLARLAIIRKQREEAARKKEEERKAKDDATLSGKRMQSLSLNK
UniProt O43252: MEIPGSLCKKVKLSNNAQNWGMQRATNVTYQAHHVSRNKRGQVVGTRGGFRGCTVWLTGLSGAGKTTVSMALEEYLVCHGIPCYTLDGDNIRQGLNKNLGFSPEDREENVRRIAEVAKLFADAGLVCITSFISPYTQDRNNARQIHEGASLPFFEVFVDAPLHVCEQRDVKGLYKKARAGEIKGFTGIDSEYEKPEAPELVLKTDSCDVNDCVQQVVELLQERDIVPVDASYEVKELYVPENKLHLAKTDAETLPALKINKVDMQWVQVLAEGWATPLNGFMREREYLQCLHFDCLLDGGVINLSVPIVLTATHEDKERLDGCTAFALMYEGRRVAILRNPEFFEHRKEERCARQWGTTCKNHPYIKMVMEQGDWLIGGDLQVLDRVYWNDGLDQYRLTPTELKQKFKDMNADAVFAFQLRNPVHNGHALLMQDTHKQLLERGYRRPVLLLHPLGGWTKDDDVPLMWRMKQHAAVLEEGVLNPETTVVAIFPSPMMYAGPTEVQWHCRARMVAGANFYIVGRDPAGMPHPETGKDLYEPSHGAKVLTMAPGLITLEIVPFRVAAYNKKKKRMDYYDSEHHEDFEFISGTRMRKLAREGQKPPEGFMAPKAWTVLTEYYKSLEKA
UniProt Q16822, whole entry, looked up: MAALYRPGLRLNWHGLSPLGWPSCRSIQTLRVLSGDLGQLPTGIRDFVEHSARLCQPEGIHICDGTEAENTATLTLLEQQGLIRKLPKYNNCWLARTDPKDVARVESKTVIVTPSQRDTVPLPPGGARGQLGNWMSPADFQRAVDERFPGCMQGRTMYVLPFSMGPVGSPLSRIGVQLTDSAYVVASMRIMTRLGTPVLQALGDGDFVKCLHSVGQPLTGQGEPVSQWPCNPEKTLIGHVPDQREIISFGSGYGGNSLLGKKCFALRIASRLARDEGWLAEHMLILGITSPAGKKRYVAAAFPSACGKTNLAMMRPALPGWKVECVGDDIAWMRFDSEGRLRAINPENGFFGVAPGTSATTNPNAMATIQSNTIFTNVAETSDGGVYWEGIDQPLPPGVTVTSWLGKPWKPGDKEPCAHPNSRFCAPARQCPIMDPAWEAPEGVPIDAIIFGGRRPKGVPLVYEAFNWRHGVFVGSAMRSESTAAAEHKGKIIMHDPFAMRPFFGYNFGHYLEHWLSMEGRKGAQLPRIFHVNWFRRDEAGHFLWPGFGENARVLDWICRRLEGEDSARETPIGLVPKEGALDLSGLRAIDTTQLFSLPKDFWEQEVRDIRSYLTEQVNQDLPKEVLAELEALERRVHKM
UniProt O75381, whole entry, looked up: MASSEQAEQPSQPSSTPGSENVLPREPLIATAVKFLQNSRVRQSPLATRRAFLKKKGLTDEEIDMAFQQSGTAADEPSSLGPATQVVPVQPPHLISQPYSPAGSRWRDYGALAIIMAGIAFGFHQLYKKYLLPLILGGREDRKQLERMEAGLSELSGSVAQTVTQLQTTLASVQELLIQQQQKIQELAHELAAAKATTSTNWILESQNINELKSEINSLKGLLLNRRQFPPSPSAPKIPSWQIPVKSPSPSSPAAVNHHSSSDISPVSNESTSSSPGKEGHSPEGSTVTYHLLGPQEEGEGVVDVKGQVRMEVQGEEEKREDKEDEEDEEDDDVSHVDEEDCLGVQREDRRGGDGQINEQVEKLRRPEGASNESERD
UniProt Q15102: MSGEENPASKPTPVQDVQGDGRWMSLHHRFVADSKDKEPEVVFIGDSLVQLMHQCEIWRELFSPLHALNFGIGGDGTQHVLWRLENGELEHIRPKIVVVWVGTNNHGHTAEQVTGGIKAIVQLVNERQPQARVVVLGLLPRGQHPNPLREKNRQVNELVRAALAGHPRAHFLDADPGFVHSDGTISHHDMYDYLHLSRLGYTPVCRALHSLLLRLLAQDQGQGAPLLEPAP

[2] = compound: CC1=C(SC2=C1C(=N[C@H](C3=NN=C(N32)C)CC(=O)N)C4=CC=C(C=C4)Cl)C
Summary of the method: as §1

[3] = compound: CC1=C2C(=CC=C1)N=C(N(C2=O)C3=CC=CC=C3C)CN4C=NC5=C(N=CN=C54)N
Summary of the method: as §1

[4] = compound: Cc1sc2c(c1C)C(c1ccc(Cl)cc1)=N[C@@H](CC(=O)OC(C)(C)C)c1nnc(C)n1-2
Summary of the method: as §1

[5] = compound: c1ccc([C@@H]2C[C@H]2NC2CCNCC2)cc1
Summary of the method: as §1

Measured: log2 fold change

PDCD6IP (UniProt Q8WUM4)
inactive: [1] -0.131 | [2] 0.05 | [3] 0.119 | [4] -0.029 | [5] -0.04

PEX1 (UniProt O43933)
inactive: [1] -0.037 | [2] 0.041 | [3] 0.008 | [4] -0.041 | [5] 0.035

PDCL (UniProt Q13371)
inactive: [1] 0.088 | [2] 0.102 | [3] 0.038 | [4] 0.013 | [5] -0.086

PDLIM5 (UniProt Q96HC4)
inactive: [1] -0.03 | [2] 0.057 | [3] 0.027 | [4] -0.011 | [5] 0.003

PAXX (UniProt Q9BUH6)
inactive: [1] 0.013 | [2] -0.023 | [3] 0.019 | [4] -0.009 | [5] -0.014

PEX12 (UniProt O00623)
inactive: [1] -0.068 | [2] 0.052 | [3] 0.086 | [4] -0.022 | [5] -0.002

PDE4A (UniProt P27815)
inactive: [1] -0.11 | [2] 0.128 | [3] 0.102 | [4] -0.112 | [5] 0.201

PCBD1 (UniProt P61457)
inactive: [1] 0.024 | [2] 0.069 | [3] 0.098 | [4] -0.034 | [5] -0.026

PACS1 (UniProt Q6VY07)
inactive: [1] -0.02 | [2] 0.042 | [3] 0.033 | [4] 0.002 | [5] -0.014

PDCD5 (UniProt O14737)
inactive: [1] -0.002 | [2] 0.015 | [3] 0.023 | [4] -0.024 | [5] 0.001

PCGF2 (UniProt P35227)
inactive: [1] -0.046 | [2] 0.133 | [3] -0.015 | [4] 0.002 | [5] -0.05

PDP1 isoform 2 (UniProt Q9P0J1)
inactive: [1] -0.252

PDCD11 (UniProt Q14690)
inactive: [1] -0.255 | [2] -0.001 | [3] 0.209 | [4] -0.045 | [5] -0.02

PDAP1 (UniProt Q13442)
inactive: [1] -0.054 | [2] 0.015 | [3] 0.018 | [4] 0.01 | [5] 0.055

PAPSS1 (UniProt O43252)
inactive: [1] -0.012 | [2] 0.043 | [3] 0.009 | [4] -0.004 | [5] -0.057

PDCD2L (UniProt Q9BRP1)
inactive: [1] -0.031 | [2] 0.055 | [3] 0.109 | [4] 0.021 | [5] 0.091

PDPR (UniProt Q8NCN5)
inactive: [1] -0.023 | [2] 0.057 | [3] 0.034 | [4] -0.019 | [5] -0.01

PCK2 (UniProt Q16822)
inactive: [1] 0.051 | [2] 0.038 | [3] 0.057 | [4] 0.008 | [5] -0.038

PCYOX1 (UniProt Q9UHG3)
inactive: [1] -0.061 | [2] 0.01 | [3] 0.006 | [4] -0.054 | [5] 0.02

PEX14 (UniProt O75381)
inactive: [1] -0.006 | [2] -0.015 | [3] -0.022 | [4] -0.011 | [5] 0.016

PATL1 (UniProt Q86TB9)
inactive: [1] -0.019 | [2] -0.004 | [3] 0.095 | [4] 0 | [5] -0.021

PEA15 isoform 2 (UniProt Q15121)
inactive: [1] -0.014 | [2] 0.1 | [3] 0.116 | [4] -0.063 | [5] -0.015

Taken from above (two entries):
PAPSS1 (UniProt O43252)
inactive: [1] -0.012 | [2] 0.043 | [3] 0.009 | [4] -0.004 | [5] -0.057

PDCD2L (UniProt Q9BRP1)
inactive: [1] -0.031 | [2] 0.055 | [3] 0.109 | [4] 0.021 | [5] 0.091

The listing continues.

PAFAH1B3 (UniProt Q15102)
inactive: [1] -0.076 | [2] 0.139 | [3] 0.128 | [4] -0.132 | [5] -0.096

PDK1 (UniProt Q15118)
inactive: [1] -0.054 | [2] 0.015 | [3] 0.091 | [4] -0.018 | [5] -0.08

PAFAH1B2 (UniProt P68402)
inactive: [1] -0.042 | [2] -0.078 | [3] 0.078 | [4] 0.004 | [5] 0.082

From the supplement of paper PMC10849652
